# Assay results reported in the supplement of paper PMC12819154, “High-throughput peptide-centric local stability assay extends protein–ligand identification to membrane proteins, tissues and bacteria” (Nature Structural & Molecular Biology, 2025).
# The chains behind the UniProt entries cited, without tags or fusion partners. Where a name states a change or a piece, a line headed by the entry shows the natural chain unless it says otherwise.
# UniProt O43663: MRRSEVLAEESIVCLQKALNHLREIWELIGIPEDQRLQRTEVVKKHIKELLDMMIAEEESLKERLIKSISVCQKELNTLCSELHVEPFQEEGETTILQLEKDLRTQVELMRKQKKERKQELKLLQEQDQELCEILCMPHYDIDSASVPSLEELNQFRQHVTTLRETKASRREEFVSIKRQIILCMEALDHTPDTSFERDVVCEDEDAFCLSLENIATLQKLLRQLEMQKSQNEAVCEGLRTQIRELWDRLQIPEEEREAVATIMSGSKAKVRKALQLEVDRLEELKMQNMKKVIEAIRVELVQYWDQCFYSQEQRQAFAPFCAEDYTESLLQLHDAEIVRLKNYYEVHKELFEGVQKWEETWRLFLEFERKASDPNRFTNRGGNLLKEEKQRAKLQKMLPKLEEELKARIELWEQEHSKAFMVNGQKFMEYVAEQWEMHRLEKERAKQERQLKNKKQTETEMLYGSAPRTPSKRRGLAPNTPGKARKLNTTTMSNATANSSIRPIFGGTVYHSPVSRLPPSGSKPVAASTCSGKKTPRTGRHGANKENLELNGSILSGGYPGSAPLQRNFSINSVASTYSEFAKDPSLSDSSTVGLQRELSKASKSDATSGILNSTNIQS
# UniProt O75127: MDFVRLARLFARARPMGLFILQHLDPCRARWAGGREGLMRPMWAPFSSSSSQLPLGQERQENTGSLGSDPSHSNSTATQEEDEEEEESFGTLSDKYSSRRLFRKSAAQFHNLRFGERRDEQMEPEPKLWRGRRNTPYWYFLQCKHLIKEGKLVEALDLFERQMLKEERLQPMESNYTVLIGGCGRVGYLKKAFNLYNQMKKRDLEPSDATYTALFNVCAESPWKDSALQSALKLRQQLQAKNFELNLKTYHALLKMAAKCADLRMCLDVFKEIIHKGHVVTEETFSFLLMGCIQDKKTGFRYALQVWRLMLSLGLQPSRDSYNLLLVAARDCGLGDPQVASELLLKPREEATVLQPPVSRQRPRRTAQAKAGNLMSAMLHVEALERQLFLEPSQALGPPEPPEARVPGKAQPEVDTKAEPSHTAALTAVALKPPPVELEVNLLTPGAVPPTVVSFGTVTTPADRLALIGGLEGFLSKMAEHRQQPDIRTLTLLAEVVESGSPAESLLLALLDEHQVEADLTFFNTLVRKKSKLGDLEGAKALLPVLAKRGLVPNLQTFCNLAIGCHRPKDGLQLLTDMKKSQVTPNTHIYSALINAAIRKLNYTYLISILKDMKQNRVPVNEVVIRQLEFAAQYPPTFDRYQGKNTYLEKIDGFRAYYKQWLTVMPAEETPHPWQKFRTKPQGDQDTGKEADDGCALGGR
# UniProt O75030: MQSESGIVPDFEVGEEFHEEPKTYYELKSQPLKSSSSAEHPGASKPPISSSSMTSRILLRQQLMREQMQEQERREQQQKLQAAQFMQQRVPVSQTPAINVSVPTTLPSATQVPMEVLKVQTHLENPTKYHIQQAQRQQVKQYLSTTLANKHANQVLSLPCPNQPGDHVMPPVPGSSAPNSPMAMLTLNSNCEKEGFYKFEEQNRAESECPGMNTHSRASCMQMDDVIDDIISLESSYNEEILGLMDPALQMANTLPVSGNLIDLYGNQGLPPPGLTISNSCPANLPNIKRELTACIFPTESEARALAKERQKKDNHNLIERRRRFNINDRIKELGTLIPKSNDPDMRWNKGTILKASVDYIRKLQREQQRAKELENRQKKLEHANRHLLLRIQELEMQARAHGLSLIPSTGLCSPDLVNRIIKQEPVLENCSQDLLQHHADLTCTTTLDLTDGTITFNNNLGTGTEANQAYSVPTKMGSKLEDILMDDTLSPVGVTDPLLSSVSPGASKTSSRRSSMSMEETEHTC
# UniProt O60381: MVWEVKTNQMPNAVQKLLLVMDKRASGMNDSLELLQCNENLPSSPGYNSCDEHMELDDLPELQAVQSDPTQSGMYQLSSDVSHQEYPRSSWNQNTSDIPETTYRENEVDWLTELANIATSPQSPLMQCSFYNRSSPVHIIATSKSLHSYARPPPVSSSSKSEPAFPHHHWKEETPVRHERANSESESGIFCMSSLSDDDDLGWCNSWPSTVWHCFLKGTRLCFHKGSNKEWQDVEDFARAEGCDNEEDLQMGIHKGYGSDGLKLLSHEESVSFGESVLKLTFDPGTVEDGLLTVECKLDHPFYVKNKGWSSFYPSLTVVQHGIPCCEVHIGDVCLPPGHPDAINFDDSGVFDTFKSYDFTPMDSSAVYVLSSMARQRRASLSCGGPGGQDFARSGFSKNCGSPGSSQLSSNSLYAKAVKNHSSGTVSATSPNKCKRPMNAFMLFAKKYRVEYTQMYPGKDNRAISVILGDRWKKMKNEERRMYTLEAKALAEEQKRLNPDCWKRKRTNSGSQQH
# UniProt O60675: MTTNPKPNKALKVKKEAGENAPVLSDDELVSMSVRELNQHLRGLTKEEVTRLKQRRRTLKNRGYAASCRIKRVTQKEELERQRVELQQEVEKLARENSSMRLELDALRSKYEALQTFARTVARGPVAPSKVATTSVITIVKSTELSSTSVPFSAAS
# UniProt O43237, whole entry: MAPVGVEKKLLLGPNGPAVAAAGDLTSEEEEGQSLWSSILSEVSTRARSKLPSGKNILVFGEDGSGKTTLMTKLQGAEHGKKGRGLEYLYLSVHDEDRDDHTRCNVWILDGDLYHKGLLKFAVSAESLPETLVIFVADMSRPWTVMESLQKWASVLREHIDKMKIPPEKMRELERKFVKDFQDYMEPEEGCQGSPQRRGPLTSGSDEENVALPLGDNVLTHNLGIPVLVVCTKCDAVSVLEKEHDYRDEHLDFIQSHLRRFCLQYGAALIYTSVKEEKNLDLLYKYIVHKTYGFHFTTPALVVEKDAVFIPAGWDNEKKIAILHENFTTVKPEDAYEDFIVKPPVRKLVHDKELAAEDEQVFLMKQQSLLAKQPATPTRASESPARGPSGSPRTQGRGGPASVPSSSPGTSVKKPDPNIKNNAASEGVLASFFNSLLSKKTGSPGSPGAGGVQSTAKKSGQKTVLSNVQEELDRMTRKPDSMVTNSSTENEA
# UniProt O75351, whole entry: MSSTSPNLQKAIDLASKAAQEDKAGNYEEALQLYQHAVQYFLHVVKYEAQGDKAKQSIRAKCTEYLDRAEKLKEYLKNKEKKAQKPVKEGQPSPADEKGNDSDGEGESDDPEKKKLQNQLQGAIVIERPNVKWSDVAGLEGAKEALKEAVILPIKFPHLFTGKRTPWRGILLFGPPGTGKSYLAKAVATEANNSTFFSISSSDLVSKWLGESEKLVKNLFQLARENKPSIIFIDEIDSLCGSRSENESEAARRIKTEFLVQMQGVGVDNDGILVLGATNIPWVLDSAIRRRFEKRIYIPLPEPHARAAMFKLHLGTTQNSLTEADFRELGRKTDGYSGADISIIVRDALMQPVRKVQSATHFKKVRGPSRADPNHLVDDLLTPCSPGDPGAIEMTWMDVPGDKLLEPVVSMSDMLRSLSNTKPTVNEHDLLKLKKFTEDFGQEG
# UniProt O60547: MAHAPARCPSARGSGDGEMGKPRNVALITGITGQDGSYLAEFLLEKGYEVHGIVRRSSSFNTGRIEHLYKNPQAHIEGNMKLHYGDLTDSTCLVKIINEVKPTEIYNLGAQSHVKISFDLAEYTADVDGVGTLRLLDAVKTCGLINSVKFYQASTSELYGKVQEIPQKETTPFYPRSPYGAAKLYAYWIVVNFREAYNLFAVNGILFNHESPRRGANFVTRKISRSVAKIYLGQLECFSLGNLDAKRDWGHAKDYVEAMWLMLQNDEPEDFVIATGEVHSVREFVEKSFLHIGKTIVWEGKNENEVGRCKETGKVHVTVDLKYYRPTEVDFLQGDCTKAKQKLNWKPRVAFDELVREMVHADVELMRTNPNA
# UniProt O60936: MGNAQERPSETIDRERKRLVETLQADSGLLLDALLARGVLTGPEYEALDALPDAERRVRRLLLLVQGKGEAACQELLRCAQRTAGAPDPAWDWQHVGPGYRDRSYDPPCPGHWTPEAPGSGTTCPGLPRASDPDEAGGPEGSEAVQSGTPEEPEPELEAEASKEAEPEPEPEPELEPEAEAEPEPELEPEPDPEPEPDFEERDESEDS
# UniProt O60907: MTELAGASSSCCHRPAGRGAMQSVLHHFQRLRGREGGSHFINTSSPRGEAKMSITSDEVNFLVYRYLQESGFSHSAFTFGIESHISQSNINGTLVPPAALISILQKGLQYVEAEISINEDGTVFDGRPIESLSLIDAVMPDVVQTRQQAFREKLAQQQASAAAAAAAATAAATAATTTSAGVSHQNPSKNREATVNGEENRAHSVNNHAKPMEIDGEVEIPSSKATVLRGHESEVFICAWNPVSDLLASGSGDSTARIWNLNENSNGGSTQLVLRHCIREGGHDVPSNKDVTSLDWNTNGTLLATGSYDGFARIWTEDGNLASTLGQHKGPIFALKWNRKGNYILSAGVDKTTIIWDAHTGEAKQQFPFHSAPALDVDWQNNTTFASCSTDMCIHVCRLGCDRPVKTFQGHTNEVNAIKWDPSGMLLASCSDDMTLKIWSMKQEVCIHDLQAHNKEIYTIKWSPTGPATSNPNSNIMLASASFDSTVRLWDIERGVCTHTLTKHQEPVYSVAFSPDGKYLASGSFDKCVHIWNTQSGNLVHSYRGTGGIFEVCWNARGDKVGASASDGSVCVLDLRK
# UniProt O43768: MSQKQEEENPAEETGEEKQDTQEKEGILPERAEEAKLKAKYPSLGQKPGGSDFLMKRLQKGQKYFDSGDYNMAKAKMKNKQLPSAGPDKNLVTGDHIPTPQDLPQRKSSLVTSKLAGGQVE
# UniProt O60829: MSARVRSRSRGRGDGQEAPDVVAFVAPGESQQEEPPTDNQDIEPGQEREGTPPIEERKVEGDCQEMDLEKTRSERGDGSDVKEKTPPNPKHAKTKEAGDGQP
# UniProt O60841: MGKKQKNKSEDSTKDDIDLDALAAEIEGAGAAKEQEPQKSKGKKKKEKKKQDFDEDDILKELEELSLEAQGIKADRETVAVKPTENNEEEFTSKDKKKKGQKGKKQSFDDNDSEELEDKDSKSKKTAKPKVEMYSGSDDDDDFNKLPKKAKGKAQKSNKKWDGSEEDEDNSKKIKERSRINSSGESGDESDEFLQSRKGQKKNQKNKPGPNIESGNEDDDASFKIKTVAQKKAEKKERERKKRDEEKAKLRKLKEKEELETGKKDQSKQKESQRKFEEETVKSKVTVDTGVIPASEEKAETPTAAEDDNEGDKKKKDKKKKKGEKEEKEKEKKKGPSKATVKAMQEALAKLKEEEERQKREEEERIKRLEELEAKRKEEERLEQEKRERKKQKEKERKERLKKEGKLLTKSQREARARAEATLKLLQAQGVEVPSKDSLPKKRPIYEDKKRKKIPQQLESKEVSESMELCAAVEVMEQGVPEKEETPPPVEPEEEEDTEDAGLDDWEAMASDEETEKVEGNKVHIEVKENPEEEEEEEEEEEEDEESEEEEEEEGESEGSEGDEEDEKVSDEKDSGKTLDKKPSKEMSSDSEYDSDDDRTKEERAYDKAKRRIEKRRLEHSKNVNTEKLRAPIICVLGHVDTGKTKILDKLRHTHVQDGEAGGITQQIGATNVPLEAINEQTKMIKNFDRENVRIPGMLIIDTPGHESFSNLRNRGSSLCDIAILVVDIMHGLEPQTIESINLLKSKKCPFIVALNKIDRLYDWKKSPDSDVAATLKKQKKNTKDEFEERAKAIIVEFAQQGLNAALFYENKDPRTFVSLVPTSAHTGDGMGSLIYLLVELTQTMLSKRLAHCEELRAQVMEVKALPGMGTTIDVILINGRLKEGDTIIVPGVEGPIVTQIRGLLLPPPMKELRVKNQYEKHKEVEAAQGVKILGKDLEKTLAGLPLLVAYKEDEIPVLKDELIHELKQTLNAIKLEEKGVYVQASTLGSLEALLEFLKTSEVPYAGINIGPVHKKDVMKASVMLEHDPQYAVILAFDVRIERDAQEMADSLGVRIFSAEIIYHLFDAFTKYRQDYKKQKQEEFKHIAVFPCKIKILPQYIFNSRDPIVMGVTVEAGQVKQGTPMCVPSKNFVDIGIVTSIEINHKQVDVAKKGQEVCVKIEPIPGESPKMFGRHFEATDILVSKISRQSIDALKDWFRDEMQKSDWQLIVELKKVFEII
# UniProt O43435: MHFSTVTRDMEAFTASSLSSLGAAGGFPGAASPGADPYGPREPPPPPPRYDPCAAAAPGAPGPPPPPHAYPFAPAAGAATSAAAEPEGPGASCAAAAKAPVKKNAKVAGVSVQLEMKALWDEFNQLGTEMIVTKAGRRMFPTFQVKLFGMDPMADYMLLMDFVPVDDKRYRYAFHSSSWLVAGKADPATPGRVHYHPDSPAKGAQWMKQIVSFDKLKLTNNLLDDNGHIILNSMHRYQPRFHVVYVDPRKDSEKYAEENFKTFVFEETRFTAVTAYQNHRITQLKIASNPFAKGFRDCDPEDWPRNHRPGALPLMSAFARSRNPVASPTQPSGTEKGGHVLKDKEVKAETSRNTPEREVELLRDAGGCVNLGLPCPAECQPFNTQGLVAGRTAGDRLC
# Some of the results follow. Small differences around the control level are noise.
# Compound: CN[C@@H]1C[C@H]2O[C@@](C)([C@@H]1OC)n1c3ccccc3c3c4c(c5c6ccccc6n2c5c31)C(=O)NC4 [staurosporine]
# Experiment: log2 fold change of tryptic peptide abundance, ligand vs vehicle (limited proteolysis) (log2 ratio); higher = more trypsin-susceptible (destabilized)
# Conditions: ligand concentration: 20 uM; sample: K562 cleared lysate; digestion: 4 min, 22 C (HT-PELSA RT4min, Orbitrap Astral)
row,Target,log2 fold change
1,"PRC1 (peptide sequence: FMEYVAEQWEMHR, peptide start residue: 428) (UniProt O43663)",0.361
2,"PTCD1 (peptide sequence: EEATVLQPPVSR, peptide start residue: 349) (UniProt O75127)",0.346
3,"MITF (peptide sequence: YHIQQAQR, peptide start residue: 129) (UniProt O75030)",0.315
4,"UniProt O60381 (peptide sequence: YRVEYTQMYPGKDNR, peptide start residue: 448)",0.232
5,"CFLAR (peptide sequence: DVAIDVVPPNVR, peptide start residue: 27) (UniProt O15519)",-0.172
6,"CALU (peptide sequence: HLVYESDQNKDGK, peptide start residue: 272) (UniProt O43852)",-0.178
7,"MAFK (peptide sequence: GPVAPSK, peptide start residue: 124) (UniProt O60675)",-0.0867
8,"DYNC1LI2 (peptide sequence: GLEYLYLSVHDEDRDDHTR, peptide start residue: 85) (UniProt O43237)",0.45
9,"ZBED4 (peptide sequence: LTDLPTVVTK, peptide start residue: 538) (UniProt O75132)",0.143
10,"SIPA1L1 (peptide sequence: VHNPCSDSVCYSVAVTR, peptide start residue: 741) (UniProt O43166)",-0.375
11,"PER1 (peptide sequence: KDPPSAALSGEGATPR, peptide start residue: 679) (UniProt O15534)",-0.311
12,"VPS4B (peptide sequence: SENESEAARR, peptide start residue: 244) (UniProt O75351)",0.972
13,"HTATSF1 (peptide sequence: GFEGSCSQKESEEGNPVR, peptide start residue: 475) (UniProt O43719)",-0.199
14,"GMDS (peptide sequence: YYRPTEVDFLQGDCTK, peptide start residue: 323) (UniProt O60547)",0.199
15,"RRP9 (peptide sequence: GKPASGAGAGAGAGKR, peptide start residue: 11) (UniProt O43818)",0.155
16,"UniProt O60610 (peptide sequence: NKHEIIR, peptide start residue: 213)",0.566
17,"NOL3 (peptide sequence: LLLLVQGK, peptide start residue: 61) (UniProt O60936)",0.165
18,"UniProt O43299 (peptide sequence: HLLPVMAK, peptide start residue: 152)",0.569
19,"RAD21 (peptide sequence: EFENPEVPREDQQQQHQQR, peptide start residue: 419) (UniProt O60216)",-0.268
20,"DNAJA2 (peptide sequence: VSLEDLYNGK, peptide start residue: 122) (UniProt O60884)",0.359
21,"TBL1X (peptide sequence: AHSVNNHAKPMEIDGEVEIPSSK, peptide start residue: 202) (UniProt O60907)",-0.663
22,"FLNB (peptide sequence: EAGAGGLSIAVEGPSKAEITFDDHK, peptide start residue: 2220) (UniProt O75369)",-0.569
23,"RBFOX2 (peptide sequence: QMFGQFGK, peptide start residue: 139) (UniProt O43251)",0.439
24,"XYLB (peptide sequence: IHAEGLGYR, peptide start residue: 421) (UniProt O75191)",-0.559
25,"ENSA (peptide sequence: YPSLGQKPGGSDFLMKR, peptide start residue: 41) (UniProt O43768)",0.594
26,"PAGE4 (peptide sequence: EGTPPIEER, peptide start residue: 49) (UniProt O60829)",-0.172
27,"EIF5B (peptide sequence: LRAPIICVLGHVDTGK, peptide start residue: 629) (UniProt O60841)",0.191
28,"TBX1 (peptide sequence: NHRPGALPLMSAFAR, peptide start residue: 306) (UniProt O43435)",-0.451

# Retrieved one by one from the list above, two records:
row,Target,log2 fold change
13,"HTATSF1 (peptide sequence: GFEGSCSQKESEEGNPVR, peptide start residue: 475) (UniProt O43719)",-0.199
3,"MITF (peptide sequence: YHIQQAQR, peptide start residue: 129) (UniProt O75030)",0.315
